Test results: PMC10256154, “An unbroken network of interactions connecting flagellin domains is required for motility in viscous environments” (PLOS Pathogens, 2023)
Results are given in words; binding and its absence hold for the method and conditions named. Some results given as binding are weak or reduced against the parent protein; the word gives no strength. Tags and fused reporters may be left off the sequences shown.

Target: T1, FliC (type B flagellin) of Pseudomonas aeruginosa PAO1, subunit of the native flagellar filament (Pseudomonas aeruginosa PAO1), P72151
T1 chain: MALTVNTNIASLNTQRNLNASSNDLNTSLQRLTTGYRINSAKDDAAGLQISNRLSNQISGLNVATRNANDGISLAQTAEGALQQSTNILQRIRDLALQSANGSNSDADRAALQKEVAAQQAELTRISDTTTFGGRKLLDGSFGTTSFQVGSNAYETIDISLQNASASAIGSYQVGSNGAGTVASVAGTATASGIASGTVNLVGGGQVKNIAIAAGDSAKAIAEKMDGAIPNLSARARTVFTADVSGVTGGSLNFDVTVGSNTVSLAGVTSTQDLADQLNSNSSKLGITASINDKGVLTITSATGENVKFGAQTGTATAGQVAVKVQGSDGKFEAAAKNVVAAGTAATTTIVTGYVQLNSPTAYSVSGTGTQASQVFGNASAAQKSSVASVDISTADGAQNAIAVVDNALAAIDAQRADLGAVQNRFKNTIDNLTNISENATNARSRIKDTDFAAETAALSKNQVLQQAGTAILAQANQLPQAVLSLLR
Test: cryo-EM structure; native PAO1 flagellar filaments sheared off cells, in PBS; reconstructed without imposing helical symmetry; both purified
Details: remark: other sources report otherwise

B1: FliC (type B flagellin) of Pseudomonas aeruginosa PAO1, subunit of the native flagellar filament, P72151 1-488 (protein)
chain: T1 chain
- binding: binds
